Reference: patent US7799753B2 (Board of Governers for Higher Education, priority 2004, dated 2010)

Test: general procedure: Fmoc solid-phase peptide synthesis; Fmoc-Ile-Wang resin; HBTU/NMM
Details: conjugation step

Row | Substance | conjugation yield [%]
1 | ATP-1,8-Diam-Suc-1,8-Diam-Suc-pTyr-Glu-Glu-Ile-OH | 16.9
2 | ATP-8-Aoct-pTyr-Glu-Glu-Ile-OH | 17.3
3 | ATP-11-Aund-pTyr-Glu-Glu-Ile-OH | 21.2
4 | PEPTIDE1{[8N3ATP].[Trioxa-Suc].[pTyr].[Glu(pN3anilide)].E.I}$$$$V2.0 | 32.0
5 | PEPTIDE1{[ATP].[6-Ahex].[pTyr].E.E.I}$$$$V2.0 | 21.9
6 | PEPTIDE1{[ATP].[Trioxa-Suc].[pTyr].E.E.I}$$$$V2.0 | 14.9
7 | PEPTIDE1{[ATP].[bAla].[pTyr].E.E.I}$$$$V2.0 | 35.7

Same assay, conditions: whole synthesis, scale 0.1 mmol

Row | Substance | isolated yield [%]
8 | H2N-1,8-Diam-Suc-1,8-Diam-Suc-pTyr-Glu-Glu-Ile-OH | 18
9 | H2N-1,13-Trioxa-Suc-pTyr-Glu-Glu-Ile-OH | 20

Strings that start with PEPTIDE1 are HELM notation: dots part the residues, brackets hold end groups and non-standard residues.
